Our source for the binding values is article PMC2997060.

In test [1] the target is T1, endogenous Desmoglein 3 (Dsg3) (human (endogenous in A431 and HaCaT)) (UniProt P32926).
T1 sequence: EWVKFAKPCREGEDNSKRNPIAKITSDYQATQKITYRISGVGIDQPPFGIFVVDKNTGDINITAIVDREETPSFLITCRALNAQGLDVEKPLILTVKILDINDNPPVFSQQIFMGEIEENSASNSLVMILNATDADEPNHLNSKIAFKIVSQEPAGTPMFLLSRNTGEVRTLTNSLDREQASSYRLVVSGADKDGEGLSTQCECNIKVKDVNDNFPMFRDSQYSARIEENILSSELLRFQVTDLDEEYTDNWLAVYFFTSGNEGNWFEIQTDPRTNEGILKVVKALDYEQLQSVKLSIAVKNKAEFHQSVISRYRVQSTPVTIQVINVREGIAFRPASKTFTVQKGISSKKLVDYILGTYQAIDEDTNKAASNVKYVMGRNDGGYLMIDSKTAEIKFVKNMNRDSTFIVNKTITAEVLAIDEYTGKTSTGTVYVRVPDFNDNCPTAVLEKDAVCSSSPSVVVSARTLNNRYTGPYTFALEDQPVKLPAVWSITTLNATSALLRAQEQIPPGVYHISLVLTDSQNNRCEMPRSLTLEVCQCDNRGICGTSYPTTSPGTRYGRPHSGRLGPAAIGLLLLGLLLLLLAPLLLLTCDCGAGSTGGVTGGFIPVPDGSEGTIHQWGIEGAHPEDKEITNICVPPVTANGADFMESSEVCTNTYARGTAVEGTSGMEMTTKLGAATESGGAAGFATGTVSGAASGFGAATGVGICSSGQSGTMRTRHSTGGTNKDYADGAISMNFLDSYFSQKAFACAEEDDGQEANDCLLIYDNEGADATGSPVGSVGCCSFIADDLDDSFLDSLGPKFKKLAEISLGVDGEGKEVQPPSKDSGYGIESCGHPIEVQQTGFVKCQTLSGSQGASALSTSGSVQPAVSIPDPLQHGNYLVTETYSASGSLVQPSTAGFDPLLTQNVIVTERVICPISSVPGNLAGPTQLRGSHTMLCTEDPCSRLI
Description: co-IP; RIPA lysates of A431 stable lines (empty vector control V and hDsg3.myc D3); antibodies (anti-myc, anti-Dsg3 5H10 or anti-E-cadherin HECD-1) coupled to Dynabeads, overnight at 4°C; Western blot.

For test [2], the target named is T2, full length human Dsg3 tagged with the c-myc epitope (hDsg3.myc) (human) (UniProt P32926).
T2 sequence: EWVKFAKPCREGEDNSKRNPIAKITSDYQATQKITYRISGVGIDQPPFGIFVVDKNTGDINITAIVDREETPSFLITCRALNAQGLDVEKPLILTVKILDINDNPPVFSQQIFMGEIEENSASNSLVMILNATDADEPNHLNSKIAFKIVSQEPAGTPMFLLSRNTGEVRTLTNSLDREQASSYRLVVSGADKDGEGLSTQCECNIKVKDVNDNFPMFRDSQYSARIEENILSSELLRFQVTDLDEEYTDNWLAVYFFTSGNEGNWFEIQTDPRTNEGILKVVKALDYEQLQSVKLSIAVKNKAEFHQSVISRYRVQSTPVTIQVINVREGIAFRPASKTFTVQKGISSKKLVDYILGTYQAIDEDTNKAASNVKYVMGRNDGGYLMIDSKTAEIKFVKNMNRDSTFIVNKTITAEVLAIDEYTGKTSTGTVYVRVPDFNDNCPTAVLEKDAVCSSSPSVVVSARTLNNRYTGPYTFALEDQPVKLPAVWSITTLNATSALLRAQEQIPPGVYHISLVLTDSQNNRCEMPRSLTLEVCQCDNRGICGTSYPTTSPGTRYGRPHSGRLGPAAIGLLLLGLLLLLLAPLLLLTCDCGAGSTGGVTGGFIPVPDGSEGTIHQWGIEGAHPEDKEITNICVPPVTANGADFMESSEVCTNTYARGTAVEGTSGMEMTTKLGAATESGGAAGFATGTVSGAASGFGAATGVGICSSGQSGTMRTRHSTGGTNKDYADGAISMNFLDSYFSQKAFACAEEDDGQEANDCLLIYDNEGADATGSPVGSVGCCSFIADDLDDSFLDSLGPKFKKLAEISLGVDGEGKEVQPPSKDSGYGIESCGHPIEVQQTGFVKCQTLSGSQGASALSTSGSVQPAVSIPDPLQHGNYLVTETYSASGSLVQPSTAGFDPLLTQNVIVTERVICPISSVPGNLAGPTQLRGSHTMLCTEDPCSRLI
The test is described as above.

For test [3], the target named is E-cadherin (human (endogenous in A431 and HaCaT)). The description is as above.
The target is the same in test [4]. Briefly: co-IP; RIPA lysate of HaCaT cells (endogenous proteins); antibody coupled to Dynabeads, overnight at 4°C; Western blot.
Test [5] shares this target. Description: FRET or BRET; acceptor photobleaching FRET on immunostained HaCaT cells; E-cadherin labelled with HECD-1 and Alexa Fluor 488 Fab conjugate (donor), Dsg3 with rabbit anti-Dsg3 and Alexa Fluor 555 conjugate (acceptor); regions with FRET >5% counted positive.

These are yes or no findings as the source states them, for the method shown. In cells and extracts the contact can be indirect. A result given as binding can be weak or reduced; the word gives no strength. For some of these results: Tags and fused reporters may be left off the sequences shown.

For the molecule “E-cadherin (human (endogenous in A431 and HaCaT))”, the binding entry in test [1] and in test [2] was “binds” in each case.

B1: full length human Dsg3 tagged with the c-myc epitope (hDsg3.myc) (protein, UniProt P32926 50-999)
chain: EWVKFAKPCREGEDNSKRNPIAKITSDYQATQKITYRISGVGIDQPPFGIFVVDKNTGDINITAIVDREETPSFLITCRALNAQGLDVEKPLILTVKILDINDNPPVFSQQIFMGEIEENSASNSLVMILNATDADEPNHLNSKIAFKIVSQEPAGTPMFLLSRNTGEVRTLTNSLDREQASSYRLVVSGADKDGEGLSTQCECNIKVKDVNDNFPMFRDSQYSARIEENILSSELLRFQVTDLDEEYTDNWLAVYFFTSGNEGNWFEIQTDPRTNEGILKVVKALDYEQLQSVKLSIAVKNKAEFHQSVISRYRVQSTPVTIQVINVREGIAFRPASKTFTVQKGISSKKLVDYILGTYQAIDEDTNKAASNVKYVMGRNDGGYLMIDSKTAEIKFVKNMNRDSTFIVNKTITAEVLAIDEYTGKTSTGTVYVRVPDFNDNCPTAVLEKDAVCSSSPSVVVSARTLNNRYTGPYTFALEDQPVKLPAVWSITTLNATSALLRAQEQIPPGVYHISLVLTDSQNNRCEMPRSLTLEVCQCDNRGICGTSYPTTSPGTRYGRPHSGRLGPAAIGLLLLGLLLLLLAPLLLLTCDCGAGSTGGVTGGFIPVPDGSEGTIHQWGIEGAHPEDKEITNICVPPVTANGADFMESSEVCTNTYARGTAVEGTSGMEMTTKLGAATESGGAAGFATGTVSGAASGFGAATGVGICSSGQSGTMRTRHSTGGTNKDYADGAISMNFLDSYFSQKAFACAEEDDGQEANDCLLIYDNEGADATGSPVGSVGCCSFIADDLDDSFLDSLGPKFKKLAEISLGVDGEGKEVQPPSKDSGYGIESCGHPIEVQQTGFVKCQTLSGSQGASALSTSGSVQPAVSIPDPLQHGNYLVTETYSASGSLVQPSTAGFDPLLTQNVIVTERVICPISSVPGNLAGPTQLRGSHTMLCTEDPCSRLI
Consider B1, for which the binding result in test [3] is recorded as “binds”.

B2: endogenous Desmoglein 3 (Dsg3) (protein, UniProt P32926 50-999)
chain: EWVKFAKPCREGEDNSKRNPIAKITSDYQATQKITYRISGVGIDQPPFGIFVVDKNTGDINITAIVDREETPSFLITCRALNAQGLDVEKPLILTVKILDINDNPPVFSQQIFMGEIEENSASNSLVMILNATDADEPNHLNSKIAFKIVSQEPAGTPMFLLSRNTGEVRTLTNSLDREQASSYRLVVSGADKDGEGLSTQCECNIKVKDVNDNFPMFRDSQYSARIEENILSSELLRFQVTDLDEEYTDNWLAVYFFTSGNEGNWFEIQTDPRTNEGILKVVKALDYEQLQSVKLSIAVKNKAEFHQSVISRYRVQSTPVTIQVINVREGIAFRPASKTFTVQKGISSKKLVDYILGTYQAIDEDTNKAASNVKYVMGRNDGGYLMIDSKTAEIKFVKNMNRDSTFIVNKTITAEVLAIDEYTGKTSTGTVYVRVPDFNDNCPTAVLEKDAVCSSSPSVVVSARTLNNRYTGPYTFALEDQPVKLPAVWSITTLNATSALLRAQEQIPPGVYHISLVLTDSQNNRCEMPRSLTLEVCQCDNRGICGTSYPTTSPGTRYGRPHSGRLGPAAIGLLLLGLLLLLLAPLLLLTCDCGAGSTGGVTGGFIPVPDGSEGTIHQWGIEGAHPEDKEITNICVPPVTANGADFMESSEVCTNTYARGTAVEGTSGMEMTTKLGAATESGGAAGFATGTVSGAASGFGAATGVGICSSGQSGTMRTRHSTGGTNKDYADGAISMNFLDSYFSQKAFACAEEDDGQEANDCLLIYDNEGADATGSPVGSVGCCSFIADDLDDSFLDSLGPKFKKLAEISLGVDGEGKEVQPPSKDSGYGIESCGHPIEVQQTGFVKCQTLSGSQGASALSTSGSVQPAVSIPDPLQHGNYLVTETYSASGSLVQPSTAGFDPLLTQNVIVTERVICPISSVPGNLAGPTQLRGSHTMLCTEDPCSRLI
Regarding B2, the binding result in test [4], in test [3] and in test [5] was “binds” each time.

B3: plakoglobin (Pg, also known as γ-catenin) (protein, UniProt P14923 1-745)
chain: MEVMNLMEQPIKVTEWQQTYTYDSGIHSGANTCVPSVSSKGIMEEDEACGRQYTLKKTTTYTQGVPPSQGDLEYQMSTTARAKRVREAMCPGVSGEDSSLLLATQVEGQATNLQRLAEPSQLLKSAIVHLINYQDDAELATRALPELTKLLNDEDPVVVTKAAMIVNQLSKKEASRRALMGSPQLVAAVVRTMQNTSDLDTARCTTSILHNLSHHREGLLAIFKSGGIPALVRMLSSPVESVLFYAITTLHNLLLYQEGAKMAVRLADGLQKMVPLLNKNNPKFLAITTDCLQLLAYGNQESKLIILANGGPQALVQIMRNYSYEKLLWTTSRVLKVLSVCPSNKPAIVEAGGMQALGKHLTSNSPRLVQNCLWTLRNLSDVATKQEGLESVLKILVNQLSVDDVNVLTCATGTLSNLTCNNSKNKTLVTQNSGVEALIHAILRAGDKDDITEPAVCALRHLTSRHPEAEMAQNSVRLNYGIPAIVKLLNQPNQWPLVKATIGLIRNLALCPANHAPLQEAAVIPRLVQLLVKAHQDAQRHVAAGTQQPYTDGVRMEEIVEGCTGALHILARDPMNRMEIFRLNTIPLFVQLLYSSVENIQRVAAGVLCELAQDKEAADAIDAEGASAPLMELLHSRNEGTATYAAAVLFRISEDKNPDYRKRVSVELTNSLFKHDPAAWEAAQSMIPINEPYGDDMDATYRPMYSSDVPLDPLEMHMDMDGDYPIDTYSDGLRPPYPTADHMLA
Consider B3, for which the binding entry in test [3] is “binds”.
